Assay results published in patent US12018045B2, “17-beta-hydroxywithanolides and use thereof in treating cancer” (The United States of America, as represented by the …, priority 2018, dated 2024).
Some results were stated once for a whole list of compounds, not compound by compound.

Tested on: LNCaP prostate cancer cells
Experiment: Growth inhibition of LNCaP prostate cancer cells
Format: cell-based
Conditions: LNCaP and 22Rv1 versus HFF (Table 1)
Procedure: LNCaP and 22Rv1 prostate cancer cells and human fibroblasts HFF cells were treated with compounds 1, 2, 3, and 4.

Row | SMILES | growth inhibitor activity, prostate cancer cells versus other cells tested
1 | CC1=C(C)C(=O)O[C@@H]([C@](C)(O)[C@]2(O)CC[C@@]3(O)[C@@H]4C[C@H]5O[C@]56CC=CC(=O)[C@]6(C)[C@H]4CC[C@]23COC(=O)c2ccc(C)nc2)C1 [Compound 4] | much greater for prostate cancer cells than other cells tested
2 | COc1ccc(C(=O)OC[C@]23CC[C@H]4[C@@H](C[C@H]5O[C@]56CC=CC(=O)[C@]46C)[C@]2(O)CC[C@@]3(O)[C@@](C)(O)[C@H]2CC(C)=C(C)C(=O)O2)cc1 [Compound 2] | much greater for prostate cancer cells than other cells tested
3 | CC1=C(C)C(=O)O[C@@H]([C@](C)(O)[C@]2(O)CC[C@@]3(O)[C@@H]4C[C@H]5O[C@]56CC=CC(=O)[C@]6(C)[C@H]4CC[C@]23COC(=O)c2ccc(C)o2)C1 [Compound 3, withaperuvin E] | much greater for prostate cancer cells than other cells tested
4 | CC(=O)OC[C@]12CC[C@H]3[C@@H](C[C@H]4O[C@]45CC=CC(=O)[C@]35C)[C@]1(O)CC[C@@]2(O)[C@@](C)(O)[C@H]1CC(C)=C(C)C(=O)O1 [Compound 1, Physachenolide C] | much greater for prostate cancer cells than other cells tested
